Data reported in patent US8501400B2, “Methods and compositions for determining the pathogenic status of infectious agents” (priority 2007, dated 2013).
At least one structure is not confirmed: it was looked up by name or label, or the drawing left a doubt. Some results were stated once for a whole list of compounds, not compound by compound.

Tested on: H37Rv cells
Test: Sp6 SML-phage drug susceptibility test: SML generation (RT-PCR) in drug-treated Mtb
Format: cell-based
Conditions: for Reduction of SML generation compared to the untreated control: 16 hr samples, estimated against 10^−1 dilution of untreated control cDNA; for SML generation after drug treatment: 0.2 μg/ml INH, 2 μg/ml STR or 7.5 μg/ml EMB, Sp6 SML-phage MOI of 1 for 4 hr

SMILES | Reduction of SML generation compared to the untreated control | SML generation after short pretreatment (2 μg/ml RIF for 3 hr, SML-phage MOI=1, 4 hr post-infection, RT-PCR) | SML generation after drug treatment (16 hr treatment at 37° C. with 2 μg/ml RIF, RT-PCR) | SML generation after drug treatment (40 hr treatment at 37° C. with 2 μg/ml RIF, RT-PCR)
CC[C@@H](CO)NCCN[C@@H](CC)CO [EMB, Ethambutol] | at least 10 fold | – | – | –
NNC(=O)c1ccncc1 [INH, isoniazid] | at least 10 fold | – | – | –
CO[C@H]1/C=C/O[C@@]2(C)Oc3c(C)c(O)c4c(O)c(c(/C=N/N5CCN(C)CC5)c(O)c4c3C2=O)NC(=O)/C(C)=C\C=C\[C@H](C)[C@H](O)[C@@H](C)[C@@H](O)[C@@H](C)[C@H](OC(C)=O)[C@@H]1C [RIF, rifampicin] | – | dramatically inhibited | no detectable SML | no detectable SML
